Laboratory results reported in PMC6458997, “Deciphering the Molecular Mechanism Underpinning Phage Arbitrium Communication Systems” (Molecular Cell, 2019).
Results are given in words; binding and its absence hold for the method and conditions named.

Columns and labels:
[1] = target: T1, SPbeta AimR (arbitrium peptide receptor / transcription factor AimR of Bacillus subtilis phage SPbeta), full length (Bacillus subtilis SPbeta phage) (UniProt O64094); experiment: thermal shift assay (differential scanning fluorimetry); 20 μM protein, 5x Sypro Orange, 20 mM Tris pH 8, 250 mM NaCl, heated 20 to 85°C; apparent Kd from 10 peptide concentrations from 0 to 2 μM, fitted to a single binding site per monomer; both purified
T1 sequence: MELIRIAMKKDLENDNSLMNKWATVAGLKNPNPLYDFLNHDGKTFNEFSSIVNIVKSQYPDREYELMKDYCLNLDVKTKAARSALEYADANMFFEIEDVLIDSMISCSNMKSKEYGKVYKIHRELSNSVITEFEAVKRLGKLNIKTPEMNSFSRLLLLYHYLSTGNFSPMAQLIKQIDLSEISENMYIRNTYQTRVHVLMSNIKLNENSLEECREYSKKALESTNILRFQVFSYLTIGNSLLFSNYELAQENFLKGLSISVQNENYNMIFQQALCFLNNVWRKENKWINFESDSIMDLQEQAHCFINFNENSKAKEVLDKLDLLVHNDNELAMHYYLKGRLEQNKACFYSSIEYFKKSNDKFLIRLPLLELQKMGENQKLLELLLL

[2] = target: SPbeta AimR lacking the TPR C-terminal subdomain (stop codon at position 294) (Bacillus subtilis SPbeta phage) (UniProt O64094); experiment: SEC; size-exclusion chromatography analysis of AimR^ΔC-ter in solution (Figure S2B); both purified
[3] = target: T2, SPbeta AimR D360A mutant (Bacillus subtilis SPbeta phage) (UniProt O64094); experiment: thermal shift assay (differential scanning fluorimetry); 20 μM protein, 5x Sypro Orange, 20 mM Tris pH 8, 250 mM NaCl, heated 20 to 85°C; apparent Kd from 10 peptide concentrations from 0 to 2 μM, fitted to a single binding site per monomer; both purified
T2 sequence: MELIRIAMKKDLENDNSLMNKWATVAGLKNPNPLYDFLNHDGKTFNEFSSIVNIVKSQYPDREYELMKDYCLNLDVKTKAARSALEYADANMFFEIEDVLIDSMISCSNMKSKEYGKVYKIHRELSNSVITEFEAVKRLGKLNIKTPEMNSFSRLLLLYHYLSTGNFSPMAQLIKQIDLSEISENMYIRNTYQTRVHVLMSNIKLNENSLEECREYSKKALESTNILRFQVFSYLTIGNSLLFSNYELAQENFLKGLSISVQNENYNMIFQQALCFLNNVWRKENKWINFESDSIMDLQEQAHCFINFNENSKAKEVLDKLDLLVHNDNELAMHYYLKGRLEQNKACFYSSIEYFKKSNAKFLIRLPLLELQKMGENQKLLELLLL

[4] = target: T3, SPbeta AimR N202A mutant (Bacillus subtilis SPbeta phage) (UniProt O64094); experiment: as above
T3 sequence: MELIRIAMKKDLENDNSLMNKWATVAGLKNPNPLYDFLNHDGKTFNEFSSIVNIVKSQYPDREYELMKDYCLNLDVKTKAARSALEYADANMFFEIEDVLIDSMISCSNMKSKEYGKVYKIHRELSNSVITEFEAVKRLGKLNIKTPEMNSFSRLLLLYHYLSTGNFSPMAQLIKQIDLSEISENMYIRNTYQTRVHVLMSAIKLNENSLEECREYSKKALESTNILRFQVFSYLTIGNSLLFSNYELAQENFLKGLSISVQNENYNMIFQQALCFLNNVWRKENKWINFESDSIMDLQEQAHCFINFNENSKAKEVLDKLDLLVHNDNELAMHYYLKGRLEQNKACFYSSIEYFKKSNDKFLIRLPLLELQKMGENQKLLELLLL

B1: phi3T AimP arbitrium peptide SAIRGA (peptide)
peptide: SAIRGA
Which binding [1] does the source give for B1 here?
The binding was “no binding”.

B2: SPbeta AimR lacking the TPR C-terminal subdomain (stop codon at position 294) (domain or fragment, UniProt O64094 1-293)
chain: MELIRIAMKKDLENDNSLMNKWATVAGLKNPNPLYDFLNHDGKTFNEFSSIVNIVKSQYPDREYELMKDYCLNLDVKTKAARSALEYADANMFFEIEDVLIDSMISCSNMKSKEYGKVYKIHRELSNSVITEFEAVKRLGKLNIKTPEMNSFSRLLLLYHYLSTGNFSPMAQLIKQIDLSEISENMYIRNTYQTRVHVLMSNIKLNENSLEECREYSKKALESTNILRFQVFSYLTIGNSLLFSNYELAQENFLKGLSISVQNENYNMIFQQALCFLNNVWRKENKWINFESD
How did the binding [2] turn out when B2 was run?
The binding was “no binding”.

B3: SPbeta AimP arbitrium peptide GMPRGA (peptide)
peptide: GMPRGA
For B3, which binding [3] is on record?
The binding was “no binding”.

What about the binding [4] of the same binder?
The binding was “no binding”.
